Laboratory results as given in PMC9345969.
These are yes or no findings as the source states them, for the method shown. In cells and extracts the contact can be indirect. Binding calls can cover weak binding; strength is not graded here. Sequences can lack the tags named with a protein.

Biological target: KSR2-Myc
Assay: co-IP; lysates of U87MG cells transiently expressing Flag-praja2 and KSR2-Myc; immunoprecipitation with anti-Myc antibody (IgG as control); immunoblot for Flag, KSR2-Myc and AMPKα1

binding: binds
B1: Flag-praja2 (enzyme, UniProt O43164 1-708)
chain: MSQYTEKEPAAMDQESGKAVWPKPAGGYQTITGRRYGRRHAYVSFKPCMTRHERSLGRAGDDYEVLELDDVPKENSSGSSPLDQVDSSLPSEPIFEKSETEIPTCGSALNQTTESSQSFVAVHHSEEGRDTLGSSTNLHNHSEGEYIPGACSASSVQNGIALVHTDSYDPDGKHGEDNDHLQLSAEVVEGSRYQESLGNTVFELENREAEAYTGLSPPVPSFNCEVRDEFEELDSVPLVKSSAGDTEFVHQNSQEIQRSSQDEMVSTKQQNNTSQERQTEHSPEDAACGPGHICSEQNTNDREKNHGSSPEQVVRPKVRKLISSSQVDQETGFNRHEAKQRSVQRWREALEVEESGSDDLLIKCEEYDGEHDCMFLDPPYSRVITQRETENNQMTSESGATAGRQEVDNTFWNGCGDYYQLYDKDEDSSECSDGEWSASLPHRFSGTEKDQSSSDESWETLPGKDENEPELQSDSSGPEEENQELSLQEGEQTSLEEGEIPWLQYNEVNESSSDEGNEPANEFAQPAFMLDGNNNLEDDSSVSEDLDVDWSLFDGFADGLGVAEAISYVDPQFLTYMALEERLAQAMETALAHLESLAVDVEVANPPASKESIDGLPETLVLEDHTAIGQEQCCPICCSEYIKDDIATELPCHHFFHKPCVSIWLQKSGTCPVCRRHFPPAVIEASAAPSSEPDPDAPPSNDSIAEAP
